Data as given in PubChem BioAssay AID1117326 (Cheminformatics & Chemogenomics Research Group (CCRG), …, 2015).
Some of the results follow.

experiment: stimulators of nuclear beta-catenin in C2C12, primary screen, imaging, WNT3A-conditioned medium, mouse C2C12, NPC library (AID 1117326); details: at 2 µM, stronger effect = higher value; note: reference of the scale not given here

| Compound | nuclear beta-catenin stimulation [%] |
| --- | --- |
| CN(CCCl)CCCl | 12.4 |
